The record followed here is PMC6120060.

Amino acid sequences for entries named in this document (tags omitted). A change or cut given only in a name is not applied to a line headed by its entry.
UniProt Q9LUG5: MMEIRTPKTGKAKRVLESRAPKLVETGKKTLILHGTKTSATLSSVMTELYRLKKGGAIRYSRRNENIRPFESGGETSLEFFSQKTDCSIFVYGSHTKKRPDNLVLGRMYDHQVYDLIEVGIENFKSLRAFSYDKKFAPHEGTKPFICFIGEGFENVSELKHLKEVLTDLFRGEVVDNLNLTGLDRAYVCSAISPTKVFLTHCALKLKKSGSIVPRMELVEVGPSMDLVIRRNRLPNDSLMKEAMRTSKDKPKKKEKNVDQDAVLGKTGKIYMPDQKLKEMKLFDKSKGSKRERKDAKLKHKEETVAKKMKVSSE
UniProt Q9SH88: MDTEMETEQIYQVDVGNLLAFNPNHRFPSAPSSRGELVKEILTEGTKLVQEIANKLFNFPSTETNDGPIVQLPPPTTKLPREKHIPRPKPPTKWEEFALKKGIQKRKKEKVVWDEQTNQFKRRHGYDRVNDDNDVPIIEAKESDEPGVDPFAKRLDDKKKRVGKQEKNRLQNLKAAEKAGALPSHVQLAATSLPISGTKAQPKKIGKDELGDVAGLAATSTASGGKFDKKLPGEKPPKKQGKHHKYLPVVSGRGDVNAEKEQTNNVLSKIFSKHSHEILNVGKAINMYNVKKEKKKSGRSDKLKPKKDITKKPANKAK

Assay [1] concerns the target ARPF2-GFP (GFP-tagged ARPF2) (Arabidopsis thaliana) (UniProt Q9LUG5). The experiment in a line: co-IP; lysates of N. benthamiana leaves co-infiltrated with ARPF2-GFP and ARRS1-MYC, three days after infection; 25 mM Tris-HCl pH 7.5, 150 mM NaCl, 0.1% NP40, 10% glycerol; precipitated with anti-GFP antibody and protein A agarose; blots with anti-GFP and anti-MYC.
Assay [2] addresses ARPF2-nGFP (ARPF2 fused to the N-terminal half of GFP) (Arabidopsis thaliana) (UniProt Q9LUG5). The experiment in a line: split reporter; split-GFP BiFC; nGFP and cGFP fusions co-expressed in N. benthamiana leaves by co-infiltration, with FIB1-mCherry as nucleolar marker; GFP fluorescence observed by microscopy two or three days after infection.

These are yes or no findings as the source states them, for the method shown. Binding seen in cells or lysates may run through a third protein. Binding calls can cover weak binding; strength is not graded here.

For the substance “ARRS1-MYC (MYC-tagged ARRS1) (from UniProt Q9SH88)”, the binding result in assay [1] was “binds”.

With “ARRS1-cGFP (ARRS1 fused to the C-terminal half of GFP) (from UniProt Q9SH88)”, the binding result in assay [2] was “binds”.
